Laboratory results: article PMC3527510, “Bin2 Is a Membrane Sculpting N-BAR Protein That Influences Leucocyte Podosomes, Motility and Phagocytosis” (PLoS ONE, 2012)
These are yes or no findings as the source states them, for the method shown. Some results given as binding are weak or reduced against the parent protein; the word gives no strength. For some assays here: Tags and fused reporters may be left off the sequences shown.

The chains behind the UniProt entries cited, without tags or fusion partners.
UniProt O35179: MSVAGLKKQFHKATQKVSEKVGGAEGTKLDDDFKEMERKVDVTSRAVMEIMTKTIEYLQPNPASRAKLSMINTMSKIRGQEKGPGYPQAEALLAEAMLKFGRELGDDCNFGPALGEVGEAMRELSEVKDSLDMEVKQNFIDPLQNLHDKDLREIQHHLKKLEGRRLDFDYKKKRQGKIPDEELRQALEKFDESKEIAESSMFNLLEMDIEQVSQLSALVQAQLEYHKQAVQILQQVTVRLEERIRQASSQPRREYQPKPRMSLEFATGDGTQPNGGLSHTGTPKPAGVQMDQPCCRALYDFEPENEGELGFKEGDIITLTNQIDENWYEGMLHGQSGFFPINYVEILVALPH

B1: Human Bin2 N-BAR domain (1-238) (domain or fragment, UniProt Q9UBW5 1-238, looked up)
chain: MAEGKAGGAAGLFAKQVQKKFSRAQEKVLQKLGKAVETKDERFEQSASNFYQQQAEGHKLYKDLKNFLSAVKVMHESSKRVSETLQEIYSSEWDGHEELKAIVWNNDLLWEDYEEKLADQAVRTMEIYVAQFSEIKERIAKRGRKLVDYDSARHHLEAVQNAKKKDEAKTAKAEEEFNKAQTVFEDLNQELLEELPILYNSRIGCYVTIFQNISNLRDVFYREMSKLNHNLYEVMSKL
notes: Bridging integrator-2 (Bin2, BRAP1), human, residues 1-238; also called hBin2 N-BAR; source: E. coli DH5α, purified (glutathione sepharose, thrombin cleavage, HiTrap Q, gel filtration)

Legend:
GST-hBin2 N-BAR (human) = molecular target: T1, GST-hBin2 N-BAR (human) (UniProt Q9UBW5); experiment: pull-down; 10 µg GST fusion or GST on glutathione beads with rising amounts of purified prey, 60 min; 20 mM HEPES pH 7.5, 150 mM NaCl, 1 mM DTT, 0.1% Triton X-100; SDS-PAGE, Coomassie; both purified
T1 sequence: B1 chain

[1] = molecular target: Human Bin2 N-BAR domain (1-238) (human) (UniProt Q9UBW5); experiment: SEC; gel filtration of purified hBin2 N-BAR after GST cleavage and ion exchange; single peak; both purified

Row | Molecule | binding (GST-hBin2 N-BAR (human)) | binding [1]
1 | Full-length rat Endophilin A1 (from UniProt O35179 1-352) | no binding (tested: up to 50 µg rat Endophilin A1) | –
2 | B1 | – | binds
